For the assay, the system named is purified erythroid cells isolated from the spleens of normal and thalassemic mice. Kind of assay: Primary splenic erythroid cell cultures with CFSE staining (cell proliferation). The note with it: AG490 100 uM, FIG. 2A. It counts as cell-based, mouse. On the procedure:
Spleens from […] were harvested and mechanically dissociated into single cell suspensions. Murine mononuclear cells were then isolated by centrifugation using Lympholyte-M density gradients (Cedarlane Laboratories Ltd, Westbury, N.Y.) following the manufacturer's instructions. Cells were incubated on ice for 15 minutes with a cocktail containing 10 μg each of non-erythroid FITCconjugated antibodies (GR-1, MAC1, CD4, CD8, CD11b, and CD49) (BD PharMingen). After washing, the cells were incubated for 15 minutes at 4° C. with anti-FITC microbeads (Miltenyi Biotech, Auburn, Calif.). The cell suspension was placed on a magnetic column and the eluted erythroid cells were kept for RNA extraction, protein analysis, in vitro culture with carboxy-fluorescein diacetate succinimidyl ester (CFSE; MolecularProbes, Eugene, Oreg.) staining or flow cytometric analysis. CFSE was added to the cells to give a final concentration of 1.25 uM. After 10 minutes at 37° C., further dye uptake was prevented by addition of 5 volumes of cold medium and incubated in ice for 5 minutes. […] Thus, it is possible to determine if cells are dividing by monitoring the reduction of CFSE fluorescence (FIG. 2A).

For `CN[C@H]1CCc2cc(OC)c(OC)c(OC)c2-c2ccc(OC)c(=O)cc21` [colcemid], the “effect on cell proliferation of erythroid cultures (CFSE)” value is listed as “blocking cell proliferation”.

Source of the values: patent US20110269721A1, “METHODS OF TREATING THALASSEMIA” (TargeGen, Inc., priority 2008, published 2011).
